Measured values: PMC3682533
Residue numbers refer to the chain shown, from its start. No constants are given. Whether binding was seen depends on the method and setting. Binding seen in cells or lysates may run through a third protein. Some results given as binding are weak or reduced against the parent protein; the word gives no strength. For part of these data: Sequences can lack the tags named with a protein.

The chains behind the UniProt entries cited, without tags or fusion partners. Where a name states a change or a piece, a line headed by the entry shows the natural chain unless it says otherwise.
UniProt O14842: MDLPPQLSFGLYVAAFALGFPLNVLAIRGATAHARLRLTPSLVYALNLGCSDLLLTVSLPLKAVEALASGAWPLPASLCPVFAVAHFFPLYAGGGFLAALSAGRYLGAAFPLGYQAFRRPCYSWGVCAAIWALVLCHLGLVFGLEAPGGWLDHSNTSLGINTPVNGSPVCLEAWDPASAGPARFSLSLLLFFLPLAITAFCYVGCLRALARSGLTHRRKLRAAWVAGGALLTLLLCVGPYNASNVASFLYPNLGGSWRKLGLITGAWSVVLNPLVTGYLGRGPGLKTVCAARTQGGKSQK

Assays:
Test in all cases: FRET or BRET; BRET1 in intact HEK293T cells co-transfected 4:1 with receptor-eYFP and β-arrestin-2 Renilla luciferase; HBSS, coelenterazine h 2.5 μM 10 min at 37 °C, then small-molecule agonist (C3, compound 1, compound 2, TUG-424 or 4-CMTB) 5 min at 37 °C; ratio of luminescence at 535 and 475 nm; recruitment is agonist-stimulated
hFFA2 L173A-eYFP (human) = molecular target: T1, hFFA2 L173A-eYFP (human) (UniProt O15552)
T1 sequence: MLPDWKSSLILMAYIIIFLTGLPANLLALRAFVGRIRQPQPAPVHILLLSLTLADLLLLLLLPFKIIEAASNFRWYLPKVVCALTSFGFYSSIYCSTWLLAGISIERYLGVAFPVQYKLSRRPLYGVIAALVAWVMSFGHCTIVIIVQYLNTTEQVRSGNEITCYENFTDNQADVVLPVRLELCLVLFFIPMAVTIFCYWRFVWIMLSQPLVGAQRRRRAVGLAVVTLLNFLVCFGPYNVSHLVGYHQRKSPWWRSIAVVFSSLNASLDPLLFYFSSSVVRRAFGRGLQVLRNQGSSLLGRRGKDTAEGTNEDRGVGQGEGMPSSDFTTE

[1] = molecular target: T2, human FFA2 free fatty acid receptor with enhanced yellow fluorescent protein fused to its C terminus (hFFA2-eYFP) (human) (UniProt O15552)
T2 sequence: T1 sequence with A173L

hFFA2 S86G-eYFP (human) = molecular target: T3, hFFA2 S86G-eYFP (human) (UniProt O15552)
T3 sequence: T1 sequence with S86G, A173L

hFFA2 Q148A-eYFP (human) = molecular target: T4, hFFA2 Q148A-eYFP (human) (UniProt O15552)
T4 sequence: T1 sequence with Q148A, A173L

hFFA1 E145Q-eYFP (human) = hFFA1 E145Q-eYFP (human) (UniProt O14842)
hFFA2 Q148E-eYFP (human) = molecular target: T5, hFFA2 Q148E-eYFP (human) (UniProt O15552)
T5 sequence: T1 sequence with Q148E, A173L

binding (hFFA2 L173A-eYFP (human)): binds
binding [1]: binds
binding (hFFA2 S86G-eYFP (human)): binds
binding (hFFA2 Q148A-eYFP (human)): binds
binding (hFFA1 E145Q-eYFP (human)): binds
binding (hFFA2 Q148E-eYFP (human)): binds
Substance: β-arrestin-2 Renilla luciferase (from UniProt P32121 1-409)
